Among the data in patent US20170008959A1 are binding values, retold here.

Sequences of proteins named here, by UniProt entry; tags and fusion partners are left off. Residues count along the entry.
UniProt Q9NQC3, residues 1055-1120: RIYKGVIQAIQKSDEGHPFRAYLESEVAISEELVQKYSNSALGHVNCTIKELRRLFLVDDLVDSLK

For the assay, the target named is AP-Nogo66 (Nogo-66 with an N-terminal alkaline phosphatase tag) (human) (UniProt Q9NQC3). Put plainly: competition ELISA: AP-Nogo66 0.1 nM with soluble His-NogoR, competing with plate-coated His-NogoR; AttoPhos readout. (An ELISA detects its analyte on a solid surface through an enzyme-linked reagent.)

These are yes or no findings as the source states them, for the method shown. Some entries that bind do so weakly or less than the wild type. Where a sequence is shown, tags or fusion partners need not be part of it.

B1: His-NogoR fusion protein (receptor, human, UniProt Q9BZR6 27-447, looked up, not shown: small tags and cut ends)
chain: CPGACVCYNEPKVTTSCPQQGLQAVPVGIPAASQRIFLHGNRISHVPAASFRACRNLTILWLHSNVLARIDAAAFTGLALLEQLDLSDNAQLRSVDPATFHGLGRLHTLHLDRCGLQELGPGLFRGLAALQYLYLQDNALQALPDDTFRDLGNLTHLFLHGNRISSVPERAFRGLHSLDRLLLHQNRVAHVHPHAFRDLGRLMTLYLFANNLSALPTEALAPLRALQYLRLNDNPWVCDCRARPLWAWLQKFRGSSSEVPCSLPQRLAGRDLKRLAANDLQGCAVATGPYHPIWTGRATDEEPLGLPKCCQPDAADKASVLEPGRPASAGNALKGRVPPGDSPPGNGSGPRHINDSPFGTLPGSAEPPLTAVRPEGSEPPGFPTSGPRRRPGCSRKNRTRSHCRLGQAGSGGGGTGDSEGS
In the case of B1, the binding entry was “binds”.
